US5098839
Tags and fusion partners may be left off the protein sequences shown.

Target: T1, PacI restriction endonuclease (Pseudomonas alcaligenes) (UniProt D5MNX7)
T1 sequence (looked up, limits assumed): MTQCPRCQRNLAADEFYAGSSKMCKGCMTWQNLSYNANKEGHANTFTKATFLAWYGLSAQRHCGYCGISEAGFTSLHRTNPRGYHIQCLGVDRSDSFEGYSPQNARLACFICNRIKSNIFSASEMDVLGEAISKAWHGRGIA
Experiment: enzyme reaction in vitro
Conditions: 10 mM Tris-HCl, 10 mM MgCl2, 1 mM DTT, BSA, 37 C in activity assay; cleavage site mapped on primer-extended plasmid DNA; purified native protein; only the site is given

TTAATTAA (double strand) [PacI recognition site in pvPACI-IIB plasmid]
activity on this sequence: active
